{"source": "PubChem BioAssay AID493014", "about": "(National Center for Advancing Translational Sciences (NCATS), 2011)", "note": "The campaign covered roughly 340,000 compounds. About 170 (0.05%) were called active. The shares of active, inactive and inconclusive entries below differ from those in the screen. The call rests on the fitted dose curve; in most records, active means well fitted inhibition curve with a large enough effect in the signal ratio, with a control signal flat (not every such curve was filed as active); inconclusive means small, poorly fitted or top-dose-only effect, or effect the other way, or a change in a side signal; inactive means flat fitted curve, though single readings scatter; the % refers to the signal ratio. Potencies of inconclusive entries are doubtful fits and often do not repeat."}
{"experiment": "qHTS Assay to Find Inhibitors of Chronic Active B-Cell Receptor Signaling; further: potency means the concentration at half of the fitted maximal effect;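 on activity change, negative = inhibition: plate controls were basal doxycycline-induced cells for no effect and cells given 10 µM MG132 for full effect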", "conditions": "ABC-DLBCL IkBa-CBG/CBR reporter, luminescence ratio (green luciferase fused to IkBa over red control in TMD8 lymphoma cells), 4 h; activity change, negative = inhibition: at 46.1 µM (top of the series)", "outline": "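TMD8 human ABC-DLBCL cells with doxycycline-inducible IκBα–green luciferase fusion and unfused red luciferase, in 0.5% FBS medium; compounds up to 46 uM, 4 h at 37C. Green/red luminescence ratio, filter-overlap corrected, fitted to concentration-response curves.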"}
{"compound": "O=C(CN1C(=O)/C(=C/c2ccccc2)SC1=S)NC1CCS(=O)(=O)C1", "note": "(stereo not drawn)", "Potency": "inconclusive: 35.5 µM [falling, single point]"}
{"compound": "O=C(NCCCn1ccnc1)c1ccc2c(c1)OCCO2", "activity change, negative = inhibition": "inconclusive: -10.2%"}
{"compound": "COCCN(C(=O)COC(=O)C1CCC(C(C)(C)C)CC1)c1c(N)n(Cc2ccccc2)c(=O)[nH]c1=O", "note": "(stereo not drawn)", "activity change, negative = inhibition": "inconclusive: -13.2%"}
{"compound": "COc1ccccc1NS(=O)(=O)c1cc(NC(=O)Nc2cccc(C)c2)ccc1N1CCCCC1", "activity change, negative = inhibition": "inactive"}
{"compound": "CCOC(=O)c1ccc(N2CSC3=C(C#N)C(c4ccc(OC)cc4OC)CC(=O)N3C2)cc1", "note": "(stereo not drawn)", "activity change, negative = inhibition": "inconclusive: -11.3%"}
{"compound": "Cn1c(NNC(=O)/C=C/c2ccc3c(c2)OCO3)cc(=O)n(C)c1=O", "activity change, negative = inhibition": "inconclusive: -5.67%"}
{"compound": "CC(C)(C)NC(=O)c1ccc2c(c1)C(=O)N(C1CCCCC1)C2=O", "activity change, negative = inhibition": "inconclusive: 15.7%"}
{"compound": "COc1cc(OC)cc(C(=O)N2CCN(Cc3ccccc3Br)CC2)c1", "Potency": "inconclusive: 28.2 µM [falling, single point]"}
{"compound": "CC1=NN(c2ccc(Cl)cc2)C(=O)C1C(c1ccccc1O)c1c(C)[nH]n(-c2ccc(Cl)cc2)c1=O", "note": "(stereo not drawn)", "Potency": "inconclusive: 8.2 µM [rising, partial curve, poor fit]"}
{"compound": "O=C(OCc1nnc(-c2ccccc2)o1)c1ccc2c(c1)C(=O)N(CCc1ccccc1)C2=O", "activity change, negative = inhibition": "inconclusive: 0.265%"}
{"compound": "COC(=O)CC1NCCc2cc(OC)c(OC)cc21", "note": "(stereo not drawn)", "activity change, negative = inhibition": "inconclusive: -10.4%"}
{"compound": "O=C(Nc1ccc(Cl)cc1)OCc1cc(-c2ccccc2)on1", "activity change, negative = inhibition": "inconclusive: 15.5%"}
{"compound": "O=C1CC(c2ccc(F)cc2)CC2=C1C(c1ccc([N+](=O)[O-])o1)Nc1ccccc1N2", "note": "(stereo not drawn)", "activity change, negative = inhibition": "inconclusive: 6.09%"}
{"compound": "COc1cc(/C=C/C(=O)c2ccc(O)cc2)ccc1OCC#N", "Potency": "inconclusive: 9.2 µM [falling, partial curve]"}
{"compound": "Cc1cc(C(=O)COC(=O)CNC(=O)c2ccco2)c(C)n1Cc1ccco1", "activity change, negative = inhibition": "inconclusive: 14%"}
{"compound": "O=C(N/N=C/c1cccnc1)c1ccc(NC(=O)c2ccccc2Cl)cc1", "activity change, negative = inhibition": "inconclusive: 10.2%"}
{"compound": "c1cncc(CNc2nc(-c3cccnc3)nc3ccccc23)c1", "activity change, negative = inhibition": "inconclusive: -3.59%"}
{"compound": "CCOc1ccccc1N=c1oc2cc(O)ccc2cc1C(=O)NCC1CCCO1", "note": "(stereo not drawn)", "Potency": "inconclusive: 1.84 µM [rising, full curve, poor fit]"}
{"compound": "O=S(=O)(c1ccccc1)N1CCN=C1SCc1c(F)cccc1Cl", "activity change, negative = inhibition": "inconclusive: -14.9%"}
{"compound": "O=C1C2C3C=CC(CNS(=O)(=O)c4ccccc4)(O3)C2C(=O)N1c1ccc(Cl)cc1", "note": "(stereo not drawn)", "activity change, negative = inhibition": "inconclusive: -8.14%"}
{"compound": "COc1ccc(CNn2c(-c3cccs3)nc3ccccc3c2=O)cc1OC", "activity change, negative = inhibition": "inconclusive: 0.884%"}
{"compound": "O=C(NCc1ccco1)c1ccc(COc2ccc(Cl)cc2)cc1", "activity change, negative = inhibition": "inconclusive: 1.2%"}
{"compound": "O=C(N/N=C/c1ccc(O)c([N+](=O)[O-])c1)C(O)(c1ccccc1)c1ccccc1", "Potency": "inconclusive: 28.2 µM [falling, partial curve, poor fit]"}
{"compound": "CCN1C(c2ccc(F)cc2)=CS/C1=C(\\C#N)c1nnc2n1-c1ccccc1SC2", "activity change, negative = inhibition": "inconclusive: -4.37%"}
{"compound": "CCOc1ccc(NS(=O)(=O)c2cc(NC(=O)CCC(=O)c3cccs3)ccc2Cl)cc1", "activity change, negative = inhibition": "inconclusive: -27.2%"}
{"compound": "COC(=O)C1C(=O)c2c([nH]c(C(=O)OC3CCCCC3)c2C)CC1C", "note": "(stereo not drawn)", "activity change, negative = inhibition": "inactive"}
{"compound": "Cc1cc(C(F)(F)F)n2nc(C)c(-c3ccc(Cl)cc3)c2n1", "activity change, negative = inhibition": "inconclusive: -5.69%"}
{"compound": "C/C(=N\\NC(=O)c1ccc(Cl)cc1)c1cccc(NC(=O)C(C)C)c1", "activity change, negative = inhibition": "inconclusive: -13.9%"}
{"compound": "COc1cc(-c2nc(C(=O)NC3CCN(Cc4ccccc4)CC3)cc3c2[nH]c2ccccc23)cc(OC)c1OC", "activity change, negative = inhibition": "inactive"}
{"compound": "Cn1ncc2c(Nc3cccc(Cl)c3)nc(Nc3cccc(Cl)c3)nc21", "Potency": "inconclusive: 3.16 µM [falling, partial curve, poor fit]"}
{"compound": "Cc1cccc(CC2S/C(=N/c3ccccn3)NC2=O)c1", "note": "(stereo not drawn)", "activity change, negative = inhibition": "inconclusive: 21.3%"}
{"compound": "Cc1nnc(SCC(=O)Nc2nc3c(s2)CC(C)CC3)s1", "note": "(stereo not drawn)", "Potency": "inconclusive: 20.6 µM [falling, single point]"}
{"compound": "c1ccc(-n2c(SCc3nc(-c4cccs4)no3)nnc2-c2ccco2)cc1", "activity change, negative = inhibition": "inconclusive: 7.68%"}
{"compound": "CCN(CC1CCCO1)C(=O)c1cc(COc2cc(C)c(Cl)c(C)c2)on1", "note": "(stereo not drawn)", "activity change, negative = inhibition": "inactive"}
{"compound": "CC[C@@]12C(=O)N(c3ccccc3)C(=O)N1[C@H](c1cccc(C)c1)[C@@H]1C(=O)N(Cc3ccccc3)C(=O)[C@@H]12", "activity change, negative = inhibition": "inconclusive: -1.65%"}
{"compound": "CCCC(C)C(=O)Nc1nc(C)c(-c2csc(Nc3ccc(Cl)cc3)n2)s1", "note": "(stereo not drawn)", "Potency": "inconclusive: 5.62 µM [rising, full curve, poor fit]"}
{"compound": "O=C(O)c1ccccc1C(=O)Nc1ccccc1", "activity change, negative = inhibition": "inconclusive: 12.5%"}
{"compound": "COC(=O)Cn1c(C)c(C#N)c2ccccc21", "activity change, negative = inhibition": "inconclusive: 9.19%"}
{"compound": "Oc1ccc(Cl)cc1-c1cc(-c2ccccc2Cl)[nH]n1", "activity change, negative = inhibition": "inconclusive: 11.1%"}
{"compound": "COc1ccc(-c2cc(=O)oc3cc(OCC(=O)Nc4ccccn4)ccc23)cc1", "activity change, negative = inhibition": "inconclusive: 4.13%"}
{"compound": "O=C(CCN1CCCCC1)c1ccc2c(c1)OCCO2", "activity change, negative = inhibition": "inconclusive: -8.85%"}
{"compound": "COC(=O)C1C(O)CCC2CN3CCc4c([nH]c5ccccc45)C3CC21", "note": "(stereo not drawn)", "activity change, negative = inhibition": "inconclusive: -4.06%"}
{"compound": "COc1ccccc1NC(=O)C(=O)NNC(=O)COc1ccc2ccccc2c1", "Potency": "inconclusive: 11.2 µM [falling, partial curve]"}
{"compound": "Nc1cccc(S(=O)(=O)c2ccc(N)c(N)c2)c1", "Potency": "inconclusive: 35.5 µM [falling, single point]"}
{"compound": "O=C(/C=C/Nc1ccc(F)cc1F)c1ccco1", "Potency": "inconclusive: 15.8 µM [falling, single point]"}
{"compound": "CCOC(=O)CNC(=O)CN1C(=O)CC(c2ccco2)Sc2ccccc21", "note": "(stereo not drawn)", "activity change, negative = inhibition": "inconclusive: 10.2%"}
{"compound": "O=C(NCc1ccccc1Cl)C1CCCN(c2nc3ccsc3c(=O)s2)C1", "note": "(stereo not drawn)", "activity change, negative = inhibition": "inactive"}
{"compound": "N#CCCSc1ncnc2c1oc1ccccc12", "activity change, negative = inhibition": "inactive"}
{"compound": "COc1ccc(N2C(=NC(=O)C3CC3)SC3CS(=O)(=O)CC32)cc1Cl", "note": "(stereo not drawn)", "activity change, negative = inhibition": "inconclusive: -12%"}
{"compound": "CCOC(=O)C1=C(C)N=c2s/c(=C\\c3ccc(OCC(=O)O)cc3)c(=O)n2C1c1ccccc1", "note": "(stereo not drawn)", "activity change, negative = inhibition": "inactive"}
{"compound": "CCOC(=O)c1nc(C)[nH]c1C(=O)OCC", "activity change, negative = inhibition": "inconclusive: 8.4%"}
{"compound": "COc1ccc(NC2=Nc3cccc4cccc2c34)cc1", "Potency": "inconclusive: 13 µM [falling, partial curve, poor fit]"}
{"compound": "Cc1cc(N2CCN(C)CC2)nc2ccc(NC(=S)NCCN3CCc4ccccc4C3)cc12", "activity change, negative = inhibition": "inactive"}
{"compound": "O=C(Nc1ccccc1)C1=C[C@@H](c2coc3ccccc3c2=O)C[C@@H](OCCCCO)O1", "activity change, negative = inhibition": "inactive"}
{"compound": "Cc1ccc(-c2cc(C(=O)NC3=NCCS3)c3ccccc3n2)cc1C", "Potency": "inconclusive: 14.6 µM [rising, single point]"}
{"compound": "CC(C(=O)NC1CCCC1)N(C(=O)c1ccc(-c2ccccc2)[nH]1)c1ccccc1F", "note": "(stereo not drawn)", "activity change, negative = inhibition": "inconclusive: 4.62%"}
{"compound": "COc1ccc(NC(=O)Cn2c(-c3ccccc3)cc(C(C)=O)c2C)c(OC)c1", "Potency": "inconclusive: 0.0794 µM [falling, full curve, poor fit]"}
{"compound": "CCOCCn1c(SC)nc2c1c(=O)[nH]c(=O)n2C", "activity change, negative = inhibition": "inconclusive: 8.07%"}
{"compound": "CCCCCC(=O)N1CCN(S(=O)(=O)c2ccc3c(c2)OCCO3)CC1", "activity change, negative = inhibition": "inactive"}
{"compound": "CCOc1ccc2[nH]c3c(N4CCN(c5ccccn5)CC4)ncnc3c2c1", "Potency": "inconclusive: 25.9 µM [rising, partial curve, poor fit]"}
{"compound": "COC(=O)c1sc2ccccc2c1NC(=O)c1ccc(S(=O)(=O)N2CCCC(C)C2)cc1", "note": "(stereo not drawn)", "activity change, negative = inhibition": "inactive"}
{"compound": "COC(=O)c1ccccc1NC(=O)CSc1nc(O)c(-c2ccccc2)c(=O)[nH]1", "activity change, negative = inhibition": "inconclusive: -21.2%"}
{"compound": "c1ccc(-c2nnc(SCc3nc4ccccc4[nH]3)n2Cc2ccco2)nc1", "activity change, negative = inhibition": "inconclusive: -3.96%"}
{"compound": "CC(=O)c1ccc(OCC(O)CN2C(C)(C)CC(O)CC2(C)C)cc1", "note": "(stereo not drawn)", "activity change, negative = inhibition": "inconclusive: 0.959%"}
{"compound": "O=c1/c(=C\\c2cccc(O)c2)sc2nc(-c3ccccc3)c(-c3ccccc3)n12", "activity change, negative = inhibition": "inconclusive: 12.6%"}
{"compound": "COC(=O)Cc1ccc(OCc2ccc(Cl)nc2)cc1", "activity change, negative = inhibition": "inconclusive: 12.5%"}
{"compound": "CC(=O)Nc1ccc(S(=O)(=O)Nc2nc3ccc([N+](=O)[O-])cc3s2)cc1", "activity change, negative = inhibition": "inconclusive: -2.07%"}
{"compound": "OCC1(Cc2ccccc2)CCN(CCCC2CCCC2)CC1", "activity change, negative = inhibition": "inactive"}
{"compound": "COc1cc(/C=N/NC(=O)c2ccoc2C)ccc1O", "Potency": "inconclusive: 20.6 µM [falling, partial curve]"}
{"compound": "O=C(COC(=O)C12CC3CC(CC(C3)C1)C2)NNC(=O)c1ccccc1", "activity change, negative = inhibition": "inactive"}
{"compound": "Cc1nonc1NC(=O)CSc1nnc(-c2ccoc2C)n1CC(C)C", "activity change, negative = inhibition": "inconclusive: -17.7%"}
{"compound": "COc1ccc(NC2CCCN(C(=O)c3ccc4[nH]c(C)c(C)c4c3)C2)cc1OC", "note": "(stereo not drawn)", "activity change, negative = inhibition": "inconclusive: -0.622%"}
{"compound": "Cc1cc(C(=O)Nc2ccc3ccccc3c2)c(C)o1", "Potency": "inconclusive: 11.2 µM [falling, partial curve]"}
{"compound": "COc1cccc(C2C(C(=O)Nc3ccccc3)=C(C)Nc3nnnn32)c1OC", "note": "(stereo not drawn)", "activity change, negative = inhibition": "inconclusive: -81.6%"}
{"compound": "CCOc1ccc(NC(=O)CN(C)C(=O)C2CC2C)cc1OCC", "note": "(stereo not drawn)", "activity change, negative = inhibition": "inactive"}
{"compound": "CC(=O)N/N=C(/C)c1ccc(NC(=O)c2csc(C)c2C)cc1", "activity change, negative = inhibition": "inconclusive: -20.3%"}
{"compound": "C[C@]12C(=O)N(c3ccccc3)C(=O)N1[C@H]1c3ccccc3OC[C@@H]1[C@H]2c1ccccc1", "activity change, negative = inhibition": "inconclusive: 1.51%"}
{"compound": "O=C(Cc1ccsc1)NNC(=O)c1ccccc1O", "Potency": "inconclusive: 16.4 µM [falling, partial curve]"}
